Values from PubChem BioAssay AID1259266 (Sanger Institute, 2017).
Test: 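Essential genes and drug synergy among kinases and colorectal-mutated genes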 (primary screen). Cells: LS123 human colorectal cancer cells. Reagents: siRNA pool against human genes. Conditions: anchor drugs BYL719 (1 µM), cetuximab (5 µg/ml) or trametinib (10 nM), each chosen to barely slow growth alone; DMSO vehicle as the drug-free arm. Measurement: 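Viability relative to non-targeting control pools, replicate mean, with a robust z-score for knock-down alone and synergy scores for each anchor drug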. Direction: robust z-score, knock-down alone: higher = more cells surviving after knock-down. Call rule: 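a knock-down counts as essential if its z-score without drug is under -3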. Calls: active = essential (knock-down alone cuts viability); inactive = no change.
The whole screen tested 794 reagents; shown is an unselected part. Over the whole deposit, 16 (2%) got an active call. 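Calls reflect knock-down alone, not drug synergy; viability seems capped at 1 and z-scores at 0.585.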 Entries without a mark were called inactive. Further read-outs or replicates are left out here. No sequences are given here. Not stated in the record: the amount of reagent, the time to read-out.

With PAK2 (p21 (RAC1) activated kinase 2), how do the results read?
robust z-score, knock-down alone: 0.585

What is on record for CTCF (CCCTC-binding factor)?
robust z-score, knock-down alone: -0.97

With PANK3 (pantothenate kinase 3), how do the results read?
robust z-score, knock-down alone: 0.585

With CDK14 (cyclin dependent kinase 14), what does the deposit list?
robust z-score, knock-down alone: -1.73

With BLK (BLK proto-oncogene, Src family tyrosine kinase), what does the deposit list?
robust z-score, knock-down alone: 0.585

With DBF4 (DBF4-CDC7 kinase regulatory subunit), what does the deposit list?
robust z-score, knock-down alone: 0.585

With GRK7 (G protein-coupled receptor kinase 7), what does the deposit list?
robust z-score, knock-down alone: -0.457

Looked up above.
Entry for PAK2 (p21 (RAC1) activated kinase 2) in “robust z-score, knock-down alone”: 0.585
Result for PANK3 (pantothenate kinase 3) under “robust z-score, knock-down alone”: 0.585
For “robust z-score, knock-down alone”, CDK14 (cyclin dependent kinase 14) shows -1.73

Further records:
For KCNH2 (potassium voltage-gated channel subfamily H member 2), what does the deposit list?
robust z-score, knock-down alone: -2.43

Which result is listed for ERBB2 (erb-b2 receptor tyrosine kinase 2)?
robust z-score, knock-down alone: 0.585

For CSNK2B (casein kinase 2 beta), what does the deposit list?
robust z-score, knock-down alone: -0.365

Which result is listed for STK39 (serine/threonine kinase 39)?
robust z-score, knock-down alone: -2.41

How did the screen score MSR1 (macrophage scavenger receptor 1)?
robust z-score, knock-down alone: -0.118

With PRKAR1B (protein kinase cAMP-dependent type I regulatory subunit beta), how do the results read?
robust z-score, knock-down alone: -0.827

How did the screen score EPHA8 (EPH receptor A8)?
robust z-score, knock-down alone: -0.032

What is on record for CHKA (choline kinase alpha)?
robust z-score, knock-down alone: 0.585

How did the screen score RPS6KB1 (ribosomal protein S6 kinase B1)?
robust z-score, knock-down alone: 0.585

For PIM3 (Pim-3 proto-oncogene, serine/threonine kinase), what does the deposit list?
robust z-score, knock-down alone: 0.585

For SIK1 (salt inducible kinase 1), what does the deposit list?
robust z-score, knock-down alone: 0.444

With IKBKB (inhibitor of nuclear factor kappa B kinase subunit beta), what was measured?
robust z-score, knock-down alone: -0.26
